Assay results published in patent US10159726B2, “Peptides, combination of peptides and scaffolds for use in immunotherapeutic treatment of various cancers” (Immatics Biotechnologies GmbH, priority 2015, dated 2018).
For some of these results: For expression read-outs the peptide stands for its source gene, whose mRNA was measured; the gene is not named for every peptide.

Experiments:
Design in all cases: species or system human
[1] = system: HLA-A*24 molecules of primary tumors; experiment: Identification and relative LC-MS quantitation of HLA-A*24 tumor-associated peptides presented on tissue samples (XPRESIDENT presentation profiles); conditions: Table 9A: selected HLA-A*24-binding tumor-associated peptides; cancer entities on which the peptide was found presented
[2] = system: source genes of selected peptides; experiment: Target coverage of source genes in tumor entities based on TCGA Research Network data; conditions: Lymphoid neoplasm diffuse large B-cell lymphoma; over-expressed = more than 2-fold above the highest 75% percentile of normal organs
[3] = system: source genes of selected peptides; experiment: Expression profiling of source genes by in-house RNAseq, tumor vs normal tissues (target coverage); conditions: share of tumors with more than 1.5-fold higher expression than the highest-expressing relevant normal tissue, in-house RNAseq

## 144: peptide found in CCR4 (gene looked up) (VFASLPGFLF; listed as Homo sapiens) [compound 144]
[1]
  ENTITIES: NSCLC, GC
[2]
  Target coverage, over-expression category of source gene, DLBC (N = 48): C (>=5% of tumors above the cutoff, but <20%)
[3]; gallbladder adenocarcinoma and cholangiocarcinoma
  Target coverage for source genes of selected peptides, GBC_CCC (N = 10): I (<19% over-expression = I)
[3]; gastric cancer
  Target coverage for source genes of selected peptides, GC (N = 11): I (<19% over-expression = I)
[3]; head and neck small cell carcinoma
  Target coverage for source genes of selected peptides, HNSCC (N = 10): I (<19% over-expression = I)
[3]; melanoma
  Target coverage for source genes of selected peptides, MEL (N = 10): I (<19% over-expression = I)
[3]; non-Hodgkin lymphoma
  Target coverage for source genes of selected peptides, NHL (N = 10): III (50-69% = III)
[3]; prostate cancer and benign prostate hyperplasia
  Target coverage for source genes of selected peptides, PCA (n = 10): I (<19% over-expression = I)
[3]; urinary bladder cancer
  Target coverage for source genes of selected peptides, UBC (N = 10): I (<19% over-expression = I)
[3]; uterine cancer
  Target coverage for source genes of selected peptides, UTC (N = 10): I (<19% over-expression = I)
